Screening data, single-dose tests

Amino acid sequences for entries named in this document (tags omitted). Residues count along the entry.
UniProt Q8IDJ8, 1-583: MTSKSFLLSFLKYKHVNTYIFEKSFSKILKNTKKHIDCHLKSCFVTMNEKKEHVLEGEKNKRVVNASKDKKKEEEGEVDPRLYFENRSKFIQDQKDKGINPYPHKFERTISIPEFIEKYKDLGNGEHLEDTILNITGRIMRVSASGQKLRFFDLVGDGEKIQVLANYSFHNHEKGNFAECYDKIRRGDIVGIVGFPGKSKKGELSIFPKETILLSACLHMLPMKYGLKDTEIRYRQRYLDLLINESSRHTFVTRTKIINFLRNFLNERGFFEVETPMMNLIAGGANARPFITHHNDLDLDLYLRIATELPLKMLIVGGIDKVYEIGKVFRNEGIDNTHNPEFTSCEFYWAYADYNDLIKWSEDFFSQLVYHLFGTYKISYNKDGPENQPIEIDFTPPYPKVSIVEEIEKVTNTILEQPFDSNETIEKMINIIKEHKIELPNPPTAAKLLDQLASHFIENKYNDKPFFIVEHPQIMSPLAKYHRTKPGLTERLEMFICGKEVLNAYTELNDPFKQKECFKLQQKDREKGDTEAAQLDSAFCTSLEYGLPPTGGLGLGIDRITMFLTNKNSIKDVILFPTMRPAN
UniProt I6X8D2, whole entry: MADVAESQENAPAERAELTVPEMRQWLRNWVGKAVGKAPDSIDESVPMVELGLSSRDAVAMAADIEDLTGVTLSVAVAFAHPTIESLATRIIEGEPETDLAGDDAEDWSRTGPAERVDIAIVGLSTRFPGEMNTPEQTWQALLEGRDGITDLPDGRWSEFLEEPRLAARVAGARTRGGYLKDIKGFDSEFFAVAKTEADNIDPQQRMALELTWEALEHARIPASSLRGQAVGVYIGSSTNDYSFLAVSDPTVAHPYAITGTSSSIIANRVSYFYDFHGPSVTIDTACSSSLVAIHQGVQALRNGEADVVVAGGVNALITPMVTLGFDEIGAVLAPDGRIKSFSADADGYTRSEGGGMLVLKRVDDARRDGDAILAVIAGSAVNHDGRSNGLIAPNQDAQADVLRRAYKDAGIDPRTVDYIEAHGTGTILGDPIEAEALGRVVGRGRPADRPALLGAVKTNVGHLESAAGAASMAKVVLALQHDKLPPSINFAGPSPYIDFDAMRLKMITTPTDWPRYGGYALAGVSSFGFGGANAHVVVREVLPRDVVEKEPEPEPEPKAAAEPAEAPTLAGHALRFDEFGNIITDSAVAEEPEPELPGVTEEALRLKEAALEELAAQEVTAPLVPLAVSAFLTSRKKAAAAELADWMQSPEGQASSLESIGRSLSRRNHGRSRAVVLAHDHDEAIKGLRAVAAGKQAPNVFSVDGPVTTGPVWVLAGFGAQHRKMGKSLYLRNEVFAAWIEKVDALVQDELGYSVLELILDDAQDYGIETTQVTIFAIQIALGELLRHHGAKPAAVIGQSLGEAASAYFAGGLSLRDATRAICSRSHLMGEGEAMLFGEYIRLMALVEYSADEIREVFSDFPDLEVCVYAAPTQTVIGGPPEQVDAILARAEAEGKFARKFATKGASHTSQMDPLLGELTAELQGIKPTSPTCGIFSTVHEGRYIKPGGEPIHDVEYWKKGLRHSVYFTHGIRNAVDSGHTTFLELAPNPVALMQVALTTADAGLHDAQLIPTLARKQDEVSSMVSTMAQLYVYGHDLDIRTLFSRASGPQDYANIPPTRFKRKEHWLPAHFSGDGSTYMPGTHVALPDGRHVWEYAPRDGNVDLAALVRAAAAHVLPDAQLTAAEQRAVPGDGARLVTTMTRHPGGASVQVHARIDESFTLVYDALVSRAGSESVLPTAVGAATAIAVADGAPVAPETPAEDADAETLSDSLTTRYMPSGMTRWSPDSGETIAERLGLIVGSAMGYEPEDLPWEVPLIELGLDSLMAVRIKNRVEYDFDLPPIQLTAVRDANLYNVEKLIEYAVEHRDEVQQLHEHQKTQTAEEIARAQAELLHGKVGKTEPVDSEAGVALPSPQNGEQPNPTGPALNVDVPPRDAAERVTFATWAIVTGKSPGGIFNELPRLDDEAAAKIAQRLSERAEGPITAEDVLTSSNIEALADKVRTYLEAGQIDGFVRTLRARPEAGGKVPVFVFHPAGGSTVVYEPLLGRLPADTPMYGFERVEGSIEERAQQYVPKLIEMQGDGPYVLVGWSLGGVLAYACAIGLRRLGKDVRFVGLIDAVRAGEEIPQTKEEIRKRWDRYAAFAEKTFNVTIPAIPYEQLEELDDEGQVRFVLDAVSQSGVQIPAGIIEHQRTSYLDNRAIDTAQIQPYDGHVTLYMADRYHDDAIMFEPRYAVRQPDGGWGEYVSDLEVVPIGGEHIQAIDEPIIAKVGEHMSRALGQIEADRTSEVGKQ
UniProt P9WNZ1, whole entry: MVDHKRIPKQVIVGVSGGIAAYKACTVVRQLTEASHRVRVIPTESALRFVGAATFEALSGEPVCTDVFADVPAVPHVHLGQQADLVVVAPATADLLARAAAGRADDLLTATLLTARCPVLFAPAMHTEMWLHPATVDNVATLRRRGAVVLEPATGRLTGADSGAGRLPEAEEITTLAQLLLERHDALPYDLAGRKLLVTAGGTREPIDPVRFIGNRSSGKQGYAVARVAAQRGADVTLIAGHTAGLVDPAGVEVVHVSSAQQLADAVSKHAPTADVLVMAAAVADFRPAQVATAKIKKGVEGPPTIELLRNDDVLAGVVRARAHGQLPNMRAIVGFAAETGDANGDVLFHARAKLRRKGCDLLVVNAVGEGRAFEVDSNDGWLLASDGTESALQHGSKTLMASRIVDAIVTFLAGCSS
UniProt Q4DA54, 1-478: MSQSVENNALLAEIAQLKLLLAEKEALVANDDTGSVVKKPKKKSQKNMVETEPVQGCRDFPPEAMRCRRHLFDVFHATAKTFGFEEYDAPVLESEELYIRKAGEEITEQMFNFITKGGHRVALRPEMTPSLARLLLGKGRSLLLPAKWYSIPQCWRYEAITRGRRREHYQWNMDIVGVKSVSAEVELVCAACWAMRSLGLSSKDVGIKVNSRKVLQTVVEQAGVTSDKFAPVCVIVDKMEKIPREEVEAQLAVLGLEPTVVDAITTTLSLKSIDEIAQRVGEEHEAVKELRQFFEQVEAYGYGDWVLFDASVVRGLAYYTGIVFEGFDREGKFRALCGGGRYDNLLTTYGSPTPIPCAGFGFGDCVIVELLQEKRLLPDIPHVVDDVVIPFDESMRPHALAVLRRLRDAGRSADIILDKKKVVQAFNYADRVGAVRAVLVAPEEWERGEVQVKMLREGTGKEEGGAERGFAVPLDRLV
UniProt P9WFT3, whole entry: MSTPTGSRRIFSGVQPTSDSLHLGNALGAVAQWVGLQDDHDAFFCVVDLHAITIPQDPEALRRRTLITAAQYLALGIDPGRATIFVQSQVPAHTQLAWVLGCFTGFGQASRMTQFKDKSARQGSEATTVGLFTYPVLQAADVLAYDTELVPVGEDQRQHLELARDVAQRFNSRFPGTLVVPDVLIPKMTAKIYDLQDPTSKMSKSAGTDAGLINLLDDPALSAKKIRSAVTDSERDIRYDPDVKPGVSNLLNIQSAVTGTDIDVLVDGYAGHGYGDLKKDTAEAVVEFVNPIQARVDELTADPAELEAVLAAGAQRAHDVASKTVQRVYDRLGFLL
UniProt P9WPC5, whole entry: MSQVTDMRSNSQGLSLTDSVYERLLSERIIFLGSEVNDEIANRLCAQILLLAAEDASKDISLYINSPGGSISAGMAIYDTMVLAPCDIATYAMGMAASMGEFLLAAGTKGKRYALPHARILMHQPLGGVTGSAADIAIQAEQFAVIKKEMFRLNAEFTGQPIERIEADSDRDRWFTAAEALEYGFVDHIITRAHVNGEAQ
UniProt P9WPC3, whole entry partner: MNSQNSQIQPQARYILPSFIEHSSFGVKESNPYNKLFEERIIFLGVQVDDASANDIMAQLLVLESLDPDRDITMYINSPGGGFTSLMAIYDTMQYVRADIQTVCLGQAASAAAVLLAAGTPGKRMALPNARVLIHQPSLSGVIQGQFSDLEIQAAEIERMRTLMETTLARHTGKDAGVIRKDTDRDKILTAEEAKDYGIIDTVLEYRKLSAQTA

Source: ChEMBL document CHEMBL3988442, “University of Dundee, Small-Polar-MMV Screening Library” (2021).

PfKRS1: 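Lysine-tRNA ligase, Plasmodium falciparum 3D7 (UniProt Q8IDJ8). Enzyme assay of the cytosolic lysyl-tRNA synthetase in 384-well plates, read by luminescence. Concentration: 30 µM. Higher reads as stronger inhibition, judged from the few compounds that gave an IC50. Size under these conditions: about 69,000 compounds, about 49 of them at 50% or above in at least one test.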
Pks13 thioesterase: 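Enzyme assay of the thioesterase domain of polyketide synthase 13; the read-out is not stated. Target: Polyketide synthase Pks13, Mycobacterium tuberculosis (UniProt I6X8D2). Tested at 30 µM. Higher reads as stronger inhibition (inferred from which compounds were picked for retests). About 67,000 compounds were tested under these conditions; 0.46% (about 300) showed 50% or more at least once.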
CoaBC: 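Enzyme assay of CoaBC with a phosphate dye (Biomol Green) read at 650 nm. Target: Coenzyme A biosynthesis protein CoaBC, Mycobacterium tuberculosis (UniProt P9WNZ1). Tested at 30 µM. Higher reads as stronger inhibition, judged from the few compounds that gave an IC50. Most strong results did not repeat in a second test. Size under these conditions: about 67,000 compounds, about 40 of them at 50% or above in at least one test.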
TcHisRS: 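Histidine-tRNA ligase, Trypanosoma cruzi CL Brener (UniProt Q4DA54). Enzyme assay of histidyl-tRNA synthetase; the read-out is not stated. Concentration: 30 µM. The record gives no direction; compounds that gave an IC50 in retests scored well above the rest, so higher reads as stronger inhibition. Size under these conditions: about 69,000 compounds, about 31 of them at 50% or above in at least one test.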
MtTrpRS: 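Tryptophan-tRNA ligase, Mycobacterium tuberculosis (UniProt P9WFT3). Enzyme assay of tryptophanyl-tRNA synthetase; the read-out is not stated. Concentration: 10 µM. Higher most likely means stronger inhibition; the record gives no direction and few retests gave an IC50. Of about 65,000 compounds tested this way, about 64 (0.098%) reached 50% or more in at least one test.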
ClpP1P2: 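Protease assay of ClpP1P2, read by the AMC dye that it sets free. Target: ClpP1P2, Mycobacterium tuberculosis (UniProt P9WPC5 and UniProt P9WPC3). Tested at 50 µM. Higher reads as stronger inhibition, judged from the few compounds that gave an IC50. Most other retested compounds had strongly negative values. Of about 69,000 compounds tested this way, about 10 (0.015%) reached 50% or more in at least one test.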

Results are given as percent effect.
The record does not define 0% and 100%; most values in the screen are far below 50% and negative numbers occur (in some assays of this library far below -100).
Compounds were drawn at random from those tested, without regard to their results.
A dash means the value is not listed here; it may have been measured.

SMILES | PfKRS1 | Pks13 thioesterase | CoaBC | TcHisRS | MtTrpRS | ClpP1P2
CCN(CC)C1(Cc2cc(-c3ccccn3)on2)COC1 | 9.412 | - | 3.733 | -0.4975 | 2.365 | -4.593
CNc1nc(CNC(=O)Nc2cccc(OC)c2)cs1 | 1.615 | -27.64 | 12.08 | 3.79 | -1.742 | -28.32
CCN(Cc1ccncc1)c1cc(C2CCNCC2)nc(C)n1 | -3.869 | -10.19 | -11.74 | 14 | -0.4405 | 10.42
Cc1ccc(NC(=O)N2CC[C@@H](O)C2)c(-c2nc(C3CC3)no2)c1 | 4.845 | 27.39 | -3.281 | -5.941 | -0.3215 | 0.1302
CS(=O)(=O)NC(=O)c1cc(Cl)c2c(c1)OCCCO2 | 2.57 | -9.571 | 5.15 | -4.651 | 3.782 | -0.4011
Cn1nnc2c(N3CC(C(=O)NCc4ccccc4F)C3)ncnc21 | 0.05446 | 1.303 | -0.3817 | 10.1 | 4.603 | -6.504
CCn1ccnc1CN1CCN(Cc2ccccn2)CC1C (configuration not stated) | -0.5178 | -10.88 | 3.106 | 3.743 | 3.377 | 0.8199
CCOCC1CN(C(=O)Cc2ccsc2)Cc2ccnn2C1 (configuration not stated) | 2.345 | - | -6.853 | -67.98 | 6.008 | -1.573
CC(C)(CO)CCCNC(=O)N1CCc2c(F)ccc(F)c2C1 | 1.621 | -23.64 | -4.645 | 5.464 | 1.788 | -4.64
Cc1nn(C)c2c(NCc3ccccn3)ncnc12 | 4.22 | -8.637 | 10.68 | 3.509 | 2.294 | -5.354
CC(C)c1nc2c(n1C)CCN(CC(=O)Nc1ccnn1C(C)C)C2 | 1.775 | 25.24 | 3.655 | 2.041 | 2.759 | -42.87
Cn1nc(C2CCNC2)c2c(C(=O)NC3CC3)cc(C3CC3)nc21 (configuration not stated) | 0.5836 | -11.78 | -1.842 | 0.5917 | 21.87 | -5.212
Cc1oc(C(=O)O)cc1S(=O)(=O)Nc1cccc(Cl)c1F | 0.6265 | -3.533 | -2.968 | 0.5747 | -7.4 | -11.83
CN1CCN2CCN(Cc3cnc(NCc4ccccc4)nc3)CC2C1 (configuration not stated) | 2.182 | -9.719 | -2.457 | 9.877 | 3.205 | -1.326
CSc1ccsc1C(=O)NS(=O)(=O)c1cccc(C#N)c1 | 4.847 | 41.86 | 6.829 | -0.9804 | -2.257 | -11.79
COCCO[C@H]1CCN(C(=O)C2CCOCC2)[C@H]1Cc1ccncc1 | -8.306 | -18.08 | 17.1 | 4.918 | 1.41 | 15.51
Cc1ccc2c(c1)SCC(=O)N2CC(=O)N1CCC[C@H]1c1nc(C)no1 | 5.87 | -28.96 | 4.989 | 7.447 | 0.7498 | 3.019
COc1cccc(S(=O)(=O)CCN2CCn3c(C)nnc3C2)c1 | 0.6889 | 2.414 | -11.59 | 6.916 | -3.374 | -23.45
c1ccc(OCc2n[nH]c3c2CN(Cc2cccs2)C3)nc1 | 1.511 | -27.3 | 5.417 | 5.882 | 1.199 | -0.2211
CCCn1cc(C(=O)NC(C(=O)O)c2ccccc2C(F)(F)F)c(C)n1 (configuration not stated) | 0.1962 | 2.394 | -7.2 | 1.149 | -1.521 | 0.4848
CNC(=O)[C@H]1C[C@@H]2CN(Cc3csc(C)n3)C[C@@H]2N1S(C)(=O)=O | 2.043 | -33.5 | 0.6061 | 2.793 | - | 4.001
CN(C)CCNC(=O)[C@H]1C[C@@H]2CN(C(=O)NCc3ccccc3)C[C@H]1O2 | 4.49 | -9.983 | -1.261 | 7.438 | -0.6975 | -0.8773
CCOCc1nn(C)c2c1CN(C(=O)c1ccno1)CC2 | 0.3627 | -28.67 | 5.285 | 2.151 | -3.876 | 1.365
CN(Cc1ncnn1C)C(=O)CCn1ccc2ccccc21 | 0.7717 | -24.9 | -1.297 | 3.03 | -3.749 | 2.376
O=C(CCn1cccn1)N1CCC(c2nnc(-c3ccsc3)o2)CC1 | 2.479 | 5.596 | 2.421 | 3.39 | 2.154 | -1.676
O=C(Cn1ccc2ccccc21)Nc1cc(N2CCCC2)ncn1 | 5.376 | -3.023 | 4.863 | 8.247 | 0.228 | -9.997
Cn1nc(C(=O)NCc2cccs2)c2c1CCS(=O)(=O)C2 | 5.573 | -3.901 | -3.695 | 4.348 | 4.016 | 0.5653
CN(C)S(=O)(=O)N1CC(c2nc(N)ncc2-c2ccc(F)cc2)C1 | 2.375 | 5.979 | -15.83 | 9.302 | -7.815 | -3.41
Cc1cccc(CN2CCCn3c(nnc3CN3CCCC3=O)C2)n1 | 2.345 | -29.28 | 2.188 | 3.883 | -8.576 | -13.52
O=C(c1ccc[nH]1)N1CCO[C@]2(CCC[C@@H]2COc2cccnc2)C1 | 4.291 | -24.75 | 1.954 | 7.843 | 5.045 | 4.791
Cc1ccc(C(=O)Nc2cc(C(N)=O)ccc2N2CCCCC2)cc1F | 7.224 | -11.73 | 6.212 | 11.31 | -0.4295 | 8.637
Cc1cc(-c2nn3c(C4CCC4)nnc3s2)on1 | 2.768 | -2.98 | 8.959 | -1 | 2.467 | -6.309
Cc1ccc(NC2CCN(C(=O)CCNS(C)(=O)=O)CC2)nn1 | 3.214 | -6.714 | 12.14 | -0.3831 | 0.4859 | 4.545
Cn1nc(-c2ccccc2NC(=O)c2cncc(Br)c2)ccc1=O | -1.234 | -3.933 | -7.4 | 4.124 | 5.699 | -1.015
COc1cccc([C@H]2CN(C(C)=O)[C@@H]3CCN(Cc4ccsc4)C[C@H]23)c1 | 3.709 | 21.91 | 1.325 | -3.39 | - | -10.4
CC(C)(C)C(=O)NC(c1nccs1)C1CCN(CC2CCCCC2)CC1 (configuration not stated) | 2.601 | -28.03 | 2.85 | 0.7692 | 5.639 | -10.62
CC(=O)N1CCn2c(nnc2C2CCCCN2C(C)=O)C1 (configuration not stated) | 2.841 | -9.472 | 0.618 | 8.365 | 13.18 | -10.47
CN1CCCCCC1C(=O)N1CCN(c2ccccc2C#N)CC1 (configuration not stated) | 2.05 | -22.28 | -4.369 | 4.972 | -0.4706 | -14.74